# Results from one PubChem assay

Source: PubChem BioAssay AID1159506 (NCATS, 2015).

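Genome-wide siRNA knockdown in TC32 Ewing sarcoma cells, comparing luciferase light from an NR0B1-promoter reporter with a CMV-promoter reporter 48 hours after transfection. Each siRNA was applied at 20 nM. A z-score of the log NR0B1-over-CMV signal, less the median of siRNAs with the same seed; more negative means a stronger specific loss of the NR0B1 reporter.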

The strongest results of the screen are mostly left out here. Sequences are the guide (antisense) strand, without overhang.

With UCAAUAACCCUUGUUCAGC against ZFX the assay gave seed-corrected z-score 0.06386.
With UAAGGUAUAACAGCCUCAA against ANGPTL8 the assay gave seed-corrected z-score 0.1727.
With AAAGUUCUCCGGGUUAGGC against CYP1B1 the assay gave seed-corrected z-score -1.225.
With UCUAGCUUCUUGGUCAUGG against NUMA1 the assay gave seed-corrected z-score 0.0867.
With UCCUCAAUAAGGACCAUUC against FAM201B the assay gave seed-corrected z-score 0.2388.
With AAUAUCUCUGGAUAUGAGC against PDXDC2P the assay gave seed-corrected z-score -0.7907.
With AUAGUGAUUAUCACCUUCC against TRIM64C the assay gave seed-corrected z-score 1.601.
With UCCAGAGGCAUGAACUUCC against UBA7 the assay gave seed-corrected z-score 0.1921.
With AAGGUGACAAUCCAGAUUC against SCFD2 the assay gave seed-corrected z-score -1.99.
With UACAUUGUGAUACAACUUC against CMTM6 the assay gave seed-corrected z-score 0.00467.
With UUUCGUCCCAGUGUAAAGC against NOX3 the assay gave seed-corrected z-score 0.5131.
With GUUGUUGUAGGCUGAAGCC against TTC36 the assay gave seed-corrected z-score 0.5248.
With AGAGCUCUCAUCUCUCUGC against SPATA31E1 the assay gave seed-corrected z-score 0.04022.
With AGCUGAAUCAGCUCAUCGU against RAB11FIP1 the assay gave seed-corrected z-score -1.789.
With UGCAUUCCUAUCAAAGCCC against UBE2K the assay gave seed-corrected z-score -0.4797.
With ACAAUUGUAGGUUCCGCUG against THTPA the assay gave seed-corrected z-score -0.7022.
With UAAGAGUGCCGUUCGUUCC against NET1 the assay gave seed-corrected z-score 0.5129.
With UCCUAUACGAAGUUGUUCU against NTAN1 the assay gave seed-corrected z-score 1.565.
With UGACGUAGUAGCCCACUCG against ASF1B the assay gave seed-corrected z-score 0.05046.
With UUUCACAUCAGCACAGUUC against PATE1 the assay gave seed-corrected z-score -0.3751.
With AAGCCGUAAAUCCAUAUCG against ABCG2 the assay gave seed-corrected z-score -0.4502.
With UCAGCGACAAAGCAAAAGG against FIGNL2 the assay gave seed-corrected z-score -0.7083.
With AAAGUCGUGACUCCCAGAG against GPR37L1 the assay gave seed-corrected z-score -0.7297.
With ACUGUUGUACCUACAAUGC against C17orf102 the assay gave seed-corrected z-score 0.09429.
With AGAUAUUUUGGAGUCUUUG against C22orf23 the assay gave seed-corrected z-score 0.9769.
With UUCGUUUAUGGAAGUCUUC against TPX2 the assay gave seed-corrected z-score -0.3765.
With UGAAGUUCCCACACGAUGC against WDR18 the assay gave seed-corrected z-score 0.0373.
With AACGAUAGCAGUAAUUAGG against PPP6C the assay gave seed-corrected z-score -0.7166.
With UGUAUCCACACGGUUCCUG against NDUFB8 the assay gave seed-corrected z-score 0.4154.
With UGAAUGUCAGUGGUUACCC against SUPT5H the assay gave seed-corrected z-score -0.155.
With UGCUGUAUCUUGGUCAACC against LONRF1 the assay gave seed-corrected z-score 0.545.
With UUGUAGAACAACAGUAGCG against LOC645188 the assay gave seed-corrected z-score 1.146.
With AUGAGAAUCGAUUAAAAGC against ZNF431 the assay gave seed-corrected z-score -0.01401.
With AUCCGGUCCAUCUUCCUCC against NPPB the assay gave seed-corrected z-score -0.07926.
With UAUCCUCUAAAGGCUGCGC against UBE2J1 the assay gave seed-corrected z-score -0.6519.
With UGAAGGACAAGUUAUAGAG against OR8B8 the assay gave seed-corrected z-score 0.6522.
With AGAAGACAUAGUAGACUCC against TNFSF9 the assay gave seed-corrected z-score 0.3719.
With UGGGUUGUAGAUCUGGACC against ST3GAL2 the assay gave seed-corrected z-score 1.526.
With AAACCAAAUUUGUUGCUGC against OR8J3 the assay gave seed-corrected z-score -1.123.
With UUGGUGUCCAAGAUAACUC against SECISBP2 the assay gave seed-corrected z-score 0.8988.
With UCACUUUUCGCAUUCAUCC against H3F3C the assay gave seed-corrected z-score -0.379.
With AAGAUCUUGGUGAACGUGG against RBM38 the assay gave seed-corrected z-score -0.4189.
With UUUGUGGUAGGAGUAGGUG against JMJD8 the assay gave seed-corrected z-score -1.091.
With AUUGCUAUAAAGCAAGUGG against LONRF3 the assay gave seed-corrected z-score -0.1371.
With GGUAGUGCAACAGUGACCC against NPFF the assay gave seed-corrected z-score 0.5978.
With AUAGUUCAGGUGAUAAUCC against FMR1 the assay gave seed-corrected z-score -0.3154.

6 of the entries, repeated:

* UGGGUUGUAGAUCUGGACC against ST3GAL2 : seed-corrected z-score 1.526
* GUUGUUGUAGGCUGAAGCC against TTC36 : seed-corrected z-score 0.5248
* UUGGUGUCCAAGAUAACUC against SECISBP2 : seed-corrected z-score 0.8988
* UCCUCAAUAAGGACCAUUC against FAM201B : seed-corrected z-score 0.2388
* UCACUUUUCGCAUUCAUCC against H3F3C : seed-corrected z-score -0.379
* UAAGGUAUAACAGCCUCAA against ANGPTL8 : seed-corrected z-score 0.1727